# Laboratory results: PubChem BioAssay AID504793 (Drosophila RNAi Screening Center, 2011)
# Purpose: 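Genes required for cells to halt at G2/M after double-strand DNA breaks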 (primary screen)
# System: Drosophila S2R+ cells
# Reagents: long dsRNA against Drosophila genes, about 0.25 µg dsRNA per well
# Timing: 4 days of dsRNA, then 4 hours of drug before read-out
# Conditions: doxorubicin 0.5 µM for 4 hours to cause double-strand breaks, in cells also given a low, harmless dose of dsRNA against nbs to sensitise the assay
# Read-out: 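Per-well count of mitotic cells stained for phospho-histone H3 after doxorubicin exposure, used as mitotic index; counts are raw and not normalised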
# Reading the numbers: mitotic cells: higher = more cells in mitosis, weaker G2 arrest
# Hit rule: 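Genes are called active only when high mitotic counts were reproduced with independent dsRNAs and mitosis was checked for delay without damage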
# Meaning of the calls: active = confirmed in follow-up tests; inactive = not confirmed
# The screen tested about 23,000 reagents; below is an unselected part of those that have a named target and a result. Of all reagents, 62 (0.27%) are marked active. 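Calls come from follow-up tests whose scores are not deposited, so confirmed genes may have low counts here; counts are not normalised per plate.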 Raw values are not corrected between plates. Reagents against one gene are numbered here. A plus sign joins genes that one reagent is predicted to hit. Reagent sequences are not shown.
Gene,dsRNA no.,"mitotic cells, replicate 1",call
CG10051,1,4,inactive
ng1 (new glue 1),1,6,inactive
Axud1 (AXIN1 up-regulated 1),1,4,inactive
abs (abstrakt),1,6,inactive
Arf6 (ADP ribosylation factor 6),1,6,inactive
CG18094,1,12,inactive
pxb,1,8,inactive
pxb,2,13,inactive
pxb,3,10,inactive
pxb,4,4,inactive
pxb,5,9,inactive
Rubicon,1,6,inactive
Rubicon,2,8,inactive
Vml (Vitelline membrane-like),1,17,inactive
Vml (Vitelline membrane-like),2,10,inactive
Vml (Vitelline membrane-like),3,1,inactive
Vml (Vitelline membrane-like),4,8,inactive
gdrd (goddard),1,4,inactive
"Pp1-Y2 (Protein phosphatase 1, Y-linked 2)",1,9,inactive
Syb (Synaptobrevin),1,8,inactive
Syb (Synaptobrevin),2,4,inactive
CG10214,1,5,inactive
Antdh (Antennal dehydrogenase),1,2,inactive
Antdh (Antennal dehydrogenase),2,12,inactive
MTA1-like (Metastasis associated 1-like),1,6,inactive
MTA1-like (Metastasis associated 1-like),2,15,inactive
MTA1-like (Metastasis associated 1-like),3,8,inactive
MTA1-like (Metastasis associated 1-like),4,6,inactive
gprs,1,5,inactive
CG10839,1,7,inactive
Surf4 (Surfeit 4),1,3,inactive
CG15629,1,8,inactive
CG15629,2,2,inactive
NetA (Netrin-A),1,12,inactive
CG9164,1,26,inactive
CG9164,2,7,inactive
CG9164,3,10,inactive
Pop1 (POP1 ribonuclease P/MRP subunit),1,7,inactive
CG40053 (retired record),1,13,inactive
CG40053 (retired record),2,2,inactive
CG40053 (retired record),3,2,inactive
CG12320,1,8,inactive
CG4101,1,3,inactive
CG1598,1,5,inactive
pelo (pelota),1,2,inactive
CG12490 + CG30265,1,3,inactive
Rab18,1,5,inactive
Rab18,2,8,inactive
Tsp29Fb (Tetraspanin 29Fb),1,4,inactive
Tsp29Fb (Tetraspanin 29Fb),2,4,inactive
Fam92,1,3,inactive
Fam92,2,4,inactive
CG15262,1,4,inactive
CG15643,1,12,inactive
CG15643,2,6,inactive
Alp9 (Alkaline phosphatase 9),1,6,inactive
Lipt1 (Lipoyltransferase 1),1,2,inactive
l(1)G0020 (lethal (1) G0020),1,6,inactive
CG34276,1,4,inactive
Fer2LCH (Ferritin 2 light chain homologue),1,10,inactive
Fer2LCH (Ferritin 2 light chain homologue),2,4,inactive
mRpS23 (mitochondrial ribosomal protein S23),1,5,inactive
CG14879,1,4,inactive
CG14879,2,5,inactive
T3dh (Type III alcohol dehydrogenase),1,5,inactive
CG5024,1,12,inactive
baz (bazooka),1,5,inactive
baz (bazooka),2,7,inactive
Muc68Ca (Mucin 68Ca),1,7,inactive
Muc68Ca (Mucin 68Ca),2,2,inactive
CG9377,1,5,inactive
Tsen34 (tRNA splicing endonuclease subunit 34),1,8,inactive
CG9582,1,7,inactive
CG1750,1,7,inactive
CG14190,1,2,inactive
CG14190,2,7,inactive

5 of these entries, reformatted.
CG40053 (retired record) #3: mitotic cells, replicate 1 = 2; call = inactive
CG12320: mitotic cells, replicate 1 = 8; call = inactive
CG4101: mitotic cells, replicate 1 = 3; call = inactive
CG1598: mitotic cells, replicate 1 = 5; call = inactive
pelo (pelota): mitotic cells, replicate 1 = 2; call = inactive
